{"source": "PubChem BioAssay AID504648", "about": "(National Center for Advancing Translational Sciences (NCATS), 2011)", "note": "Among all 390,000 compounds or so, about 610 (0.16%) were called active. This list was built around the results that the source calls inconclusive (neither active nor inactive); the mix of calls is not that of the screen. The call rests on the fitted dose curve; in most records, active means well fitted inhibition curve with a large enough effect; inconclusive means small, poorly fitted or top-dose-only effect, or effect the other way, or another doubt; inactive means no such curve, though single readings can be large or run the other way. Potencies beside an inconclusive call are fits to weak or partial responses and may not hold up. On the % scale 0 is the no-effect control and ±100 the full control effect; potency means the concentration at half of the fitted maximal effect."}
{"experiment": "Nrf2 qHTS screen for inhibitors: counterscreen for cytotoxicity", "conditions": "A549 ARE-Fluc cells, CellTiter-Fluor viability, 18-24 h; activity change, negative = cytotoxicity: at 46 µM (top of the series)", "outline": "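A549 ARE_Fluc cells in 5% FBS OPTI-MEM were exposed to compounds in concentration-response for 18-24 h at 37 deg C. Viability was read by CellTiter-Fluor fluorescence (Ex 405/Em 525) after 30 min, before the luciferase read.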"}
{"smiles": "COc1cc(/C=N\\NC(=O)c2ccc(-c3ccccc3)cc2)cc(OC)c1O", "Potency": "inactive"}
{"smiles": "N#Cc1cnn2ccc(-c3cc(N4CCOCC4)ccc3[N+](=O)[O-])nc12", "Potency": "inconclusive: 18.4 µM [falling, single point]"}
{"smiles": "CCC(=O)c1ccccc1OCCCN1CCC(Cc2ccccc2)CC1", "Potency": "inactive"}
{"smiles": "O=C1Nc2c(Cl)cc(Cl)cc2C1=O", "Potency": "inconclusive: 32.6 µM [falling, partial curve, poor fit]"}
{"smiles": "CCN(CC)S(=O)(=O)c1cccc(NC(=O)Nc2cccc(C(F)(F)F)c2)c1", "Potency": "inconclusive: 23.1 µM [falling, single point]"}
{"smiles": "CCOc1ccc(-c2nnc(SCC(=O)Nc3ccc4c(c3)c3ccccc3n4CC)n2N)cc1", "Potency": "inconclusive: 29.1 µM [falling, single point]"}
{"smiles": "COc1ccc(OC)c(NC(=O)CSc2nnc(Cc3cccn3C)n2CCc2ccccc2)c1", "Potency": "inconclusive: 29.1 µM [falling, single point]"}
{"smiles": "CCN(CC)CCCNC1=C(Cl)C(=O)c2ccccc2C1=O", "Potency": "inconclusive: 29.1 µM [falling, single point]"}
{"smiles": "CC(C)c1ccc(-c2nn(-c3ccccc3)cc2C(=O)NCC2CCCO2)cc1", "note": "(stereo not drawn)", "Potency": "inconclusive: 16.4 µM [falling, single point]"}
{"smiles": "O=C(Nc1ccccc1SCC1CSc2nc3ccccc3c(=O)n21)c1ccccc1", "note": "(stereo not drawn)", "Potency": "inconclusive: 16.4 µM [falling, partial curve]"}
{"smiles": "COc1ccccc1N(CC(=O)Nc1ccc2c(c1)OCCO2)S(=O)(=O)c1ccc(C)cc1", "Potency": "inactive"}
{"smiles": "c1cc2c(cc1-c1csc(NNC3=NCCCCC3)n1)OCCO2", "Potency": "inconclusive: 14.6 µM [falling, single point]"}
{"smiles": "C[C@H](CO)N1C[C@H](C)[C@@H](CN(C)S(=O)(=O)c2ccc(F)cc2)Oc2ccc(NC(=O)Nc3ccccc3)cc2C1=O", "Potency": "inactive"}
{"smiles": "CCC(=O)c1ccc(OCc2ccc(C#N)cc2)cc1", "Potency": "inactive"}
{"smiles": "CCc1ccccc1NC(=O)Cn1nnc(C(=O)NCc2ccco2)c1N", "Potency": "inactive"}
{"smiles": "COc1ccc(NC(=O)CCCN2C(=O)/C(=C\\c3ccco3)SC2=S)cc1", "Potency": "inconclusive: 29.1 µM [falling, single point]"}
{"smiles": "O=C1OC(c2ccc3ccccc3c2O)(c2ccc3ccccc3c2O)c2ccccc21", "Potency": "inconclusive: 29.1 µM [falling, single point]"}
{"smiles": "COc1ccc(C(=O)c2c(C(F)(F)F)oc3c2C(=O)c2ccccc2C3=O)cc1", "Potency": "active: 7.31 µM"}
{"smiles": "Fc1ccc2[nH]c3c(N4CCc5ccccc5C4)ncnc3c2c1", "Potency": "inconclusive: 16.4 µM [falling, partial curve, poor fit]"}
{"smiles": "COc1ccccc1-c1sc2ccccc2c1-c1ccc(OCCN2CCCCC2)cc1", "Potency": "inactive"}
{"smiles": "O=c1[nH]ncc2c3ccccc3n(Cc3ccc(F)cc3)c12", "Potency": "inconclusive: 13 µM [activator, partial curve]"}
{"smiles": "O=S(=O)(c1cccc(-n2cnnn2)c1)N1CCOCC1", "Potency": "inconclusive: 25.9 µM [activator, partial curve, poor fit]"}
{"smiles": "O=C(Nc1cccc(-c2ccc(N3CCCCC3)nn2)c1)c1ccc(Br)o1", "Potency": "inconclusive: 23.1 µM [falling, partial curve, poor fit]"}
{"smiles": "CCS(=O)(=O)NCCc1sc2nc(-c3ccc(OC)cc3)nn2c1C", "Potency": "inactive"}
{"smiles": "CCOc1ccc(NC(=O)/C(C#N)=C/c2cn(CC(=O)O)c3ccccc23)cc1", "Potency": "inconclusive: 18.4 µM [falling, partial curve, poor fit]"}
{"smiles": "Cc1cccn2c(=O)cc(COc3ccc(NC(=O)COc4ccc(F)cc4)cc3)nc12", "Potency": "inactive"}
{"smiles": "Cc1ccc(-c2nc3ccccc3s2)cc1NC(=S)NC(=O)/C=C/c1ccco1", "Potency": "inconclusive: 20.6 µM [falling, single point]"}
{"smiles": "O=C(NC(=S)Nc1ccc(Cc2ccncc2)cc1)c1ccccc1", "Potency": "inactive"}
{"smiles": "CCN1/C(=C2\\SC(=S)N(Cc3ccccc3)C2=O)Sc2ccccc21", "Potency": "inactive"}
{"smiles": "Oc1ccccc1CNc1cnc2ccccc2c1", "Potency": "inactive"}
{"smiles": "O=C(CCl)Nc1ccccc1C(=O)c1ccccc1", "Potency": "inactive"}
{"smiles": "CCCNC(=O)c1ccc2c(c1)C1C3CCC(C3)C1C(c1ccccc1)N2", "note": "(stereo not drawn)", "Potency": "inconclusive: 20.6 µM [falling, single point]"}
{"smiles": "Cn1c(=O)[nH]c(=O)c2[nH]c(N(Cc3ccccc3)Cc3ccccc3)nc21", "Potency": "inconclusive: 16.4 µM [falling, single point]"}
{"smiles": "CCN(CC)c1ccc(NC(=O)c2ccccc2F)cc1S(=O)(=O)Nc1ccccc1OC", "Potency": "inconclusive: 32.6 µM [activator, partial curve, poor fit]"}
{"smiles": "C=CC[C@@H](Cc1ccc(F)cc1)C(=O)OC[C@H]1CCCN1C(=O)[C@H](CC=C)CC(=O)N[C@H](CO)Cc1ccccc1", "Potency": "inconclusive: 23.1 µM [falling, single point]"}
{"smiles": "Cc1cccc(OCc2ccc(-c3nc(C#N)c(NCCN(C)C)o3)o2)c1", "Potency": "inactive"}
{"smiles": "COc1ccc2c(c1)c1c(c(=O)n(-c3ccccc3C)c(=O)n1CC(=O)NCc1ccc(C)cc1)n2C", "activity change, negative = cytotoxicity": "inconclusive: -64.9% [activator]"}
{"smiles": "CN(CCc1ccccn1)Cc1ccc(Cl)cc1", "Potency": "inconclusive: 18.4 µM [activator, partial curve, poor fit]"}
{"smiles": "COc1cc2cc(NC(C)=O)cc(NCc3ccccc3)c2cc1OC", "Potency": "inactive"}
{"smiles": "Cc1cccc(CN2C(=O)c3ccccc3Sc3ccc(C(=O)N4CCCC4)cc32)c1", "Potency": "inactive"}
{"smiles": "CC(C)c1ccc(C2C(C#N)=C(N)Oc3c2oc(CO)cc3=O)cc1", "note": "(stereo not drawn)", "Potency": "inconclusive: 0.82 µM [activator, full curve, poor fit]"}
{"smiles": "O=C(N/N=C/c1ccc(Cl)cc1)c1cc(-c2cccnc2)nc2ccccc12", "Potency": "inconclusive: 6.51 µM [falling, partial curve, poor fit]"}
{"smiles": "COc1ccc(/C=C2\\Oc3cc(OCC(=O)N4CCC[C@H]4C(=O)O)ccc3C2=O)c(OC)c1OC", "Potency": "inconclusive: 32.6 µM [falling, single point]"}
{"smiles": "NC(=O)c1cc([N+](=O)[O-])ccc1NCc1cccc(N)c1", "Potency": "inconclusive: 16.4 µM [falling, single point]"}
{"smiles": "COc1ccccc1Nc1nn2c(=O)c3ccc(C(=O)NCc4cccs4)cc3nc2s1", "Potency": "active: 7.31 µM"}
{"smiles": "Cc1nn(C(C)C)c(C)c1CN1CCC(C(=O)Nc2cccc(-c3cccc(F)c3)c2)CC1", "Potency": "inconclusive: 29.1 µM [falling, single point]"}
{"smiles": "CC(C)COC(=O)N1CCN(S(=O)(=O)c2ccc3c(c2)CCC3)CC1", "Potency": "inactive"}
{"smiles": "COc1cccc(Nc2nc(C#N)nc(NC3CCCC3)n2)c1", "Potency": "inconclusive: 29.1 µM [falling, single point]"}
{"smiles": "O=C(O)c1cccc(-c2ccc(/C=c3/sc4nc5ccccc5n4c3=O)o2)c1", "Potency": "inactive"}
{"smiles": "C/C(=N\\NC(=O)c1ccc(F)cc1)c1ccccn1", "Potency": "inconclusive: 0.517 µM [falling, full curve, poor fit]"}
{"smiles": "CCOC(=O)C1=C(C)Nc2sc(C(=O)c3ccc(Br)cc3)c(N)c2C1c1ccc(C(=O)OC)cc1", "note": "(stereo not drawn)", "Potency": "inconclusive: 11.6 µM [falling, single point]"}
{"smiles": "COCCNC(=O)/C(C#N)=C/c1c(N2CCCCCC2)nc2ccccn2c1=O", "Potency": "inconclusive: 16.4 µM [falling, partial curve, poor fit]"}
{"smiles": "O=S(=O)(Nc1nc2ccccc2nc1Nc1cccc(S(=O)(=O)N2CCCCC2)c1)c1ccccc1", "Potency": "inconclusive: 29.1 µM [falling, single point]"}
{"smiles": "COCCCNC(=S)NNC(=S)Nc1ccc(OC)cc1", "Potency": "inconclusive: 29.1 µM [activator, partial curve, poor fit]"}
{"smiles": "CCN1CCN(Cc2c(O)ccc3c(=O)c(-c4ccc(OC)c(OC)c4)c(C(F)(F)F)oc23)CC1", "Potency": "inconclusive: 9.2 µM [activator, partial curve, poor fit]"}
{"smiles": "CCOc1ccc(-n2cc(C(=O)Nc3cccc(OC)c3)c3cc(OC)c(OC)cc3c2=O)cc1", "Potency": "inconclusive: 29.1 µM [activator, single point]"}
{"smiles": "CC12CC3CC(C)(C1)CC(C(=O)Nc1nncs1)(C3)C2", "Potency": "inactive"}
{"smiles": "O=C(NC1CCCCC1)C(c1cccnc1)N(C(=O)CCl)c1cccc(Cl)c1", "note": "(stereo not drawn)", "Potency": "inactive"}
{"smiles": "Cc1ccc(Nc2cc(=O)n(C3CCCCC3)c(=O)[nH]2)cc1C", "Potency": "inconclusive: 20.6 µM [falling, single point]"}
{"smiles": "COc1cccc(OCCCCn2c(-c3ccc(Cl)cc3)nc3ccccc3c2=O)c1", "Potency": "inconclusive: 4.61 µM [activator, full curve]"}
{"smiles": "O=C(Nc1nnc(SCc2ccc(F)cc2)s1)C1Cc2ccccc2CN1C(=O)c1ccco1", "note": "(stereo not drawn)", "Potency": "inconclusive: 20.6 µM [falling, single point]"}
{"smiles": "Cc1nc(-c2ccccc2)sc1-c1nc(-c2cccnc2)ncc1S(=O)(=O)c1ccccc1", "Potency": "inconclusive: 29.1 µM [falling, single point]"}
{"smiles": "O=C(/C=C/c1ccc(Cl)cc1)Nc1ccccc1N1CCOCC1", "Potency": "inconclusive: 4.11 µM [activator, partial curve, poor fit]"}
{"smiles": "CN1C=CC=C/C1=C1\\SC(=S)N(c2ccccc2)C1=O", "Potency": "inconclusive: 20.6 µM [falling, partial curve, poor fit]"}
{"smiles": "CCCC(=O)NC(c1ccccc1OC)c1ccc2cccnc2c1O", "note": "(stereo not drawn)", "Potency": "inconclusive: 13 µM [falling, partial curve, poor fit]"}
{"smiles": "Cc1cccc(N2CCN(C(=O)CCC(=O)N3CC(C)Oc4ccccc43)CC2)c1C", "note": "(stereo not drawn)", "Potency": "inactive"}
{"smiles": "COc1ccc(NC(=O)NCc2cccnc2)c(OC)c1", "Potency": "inactive"}
{"smiles": "O=c1nc(N/N=C/c2ccccn2)cn[nH]1", "Potency": "inactive"}
